Experimental data from PMC11032339.

Target: T1, soluble full-length recombinant ADAMTS13 (UniProt Q76LX8)
T1 sequence: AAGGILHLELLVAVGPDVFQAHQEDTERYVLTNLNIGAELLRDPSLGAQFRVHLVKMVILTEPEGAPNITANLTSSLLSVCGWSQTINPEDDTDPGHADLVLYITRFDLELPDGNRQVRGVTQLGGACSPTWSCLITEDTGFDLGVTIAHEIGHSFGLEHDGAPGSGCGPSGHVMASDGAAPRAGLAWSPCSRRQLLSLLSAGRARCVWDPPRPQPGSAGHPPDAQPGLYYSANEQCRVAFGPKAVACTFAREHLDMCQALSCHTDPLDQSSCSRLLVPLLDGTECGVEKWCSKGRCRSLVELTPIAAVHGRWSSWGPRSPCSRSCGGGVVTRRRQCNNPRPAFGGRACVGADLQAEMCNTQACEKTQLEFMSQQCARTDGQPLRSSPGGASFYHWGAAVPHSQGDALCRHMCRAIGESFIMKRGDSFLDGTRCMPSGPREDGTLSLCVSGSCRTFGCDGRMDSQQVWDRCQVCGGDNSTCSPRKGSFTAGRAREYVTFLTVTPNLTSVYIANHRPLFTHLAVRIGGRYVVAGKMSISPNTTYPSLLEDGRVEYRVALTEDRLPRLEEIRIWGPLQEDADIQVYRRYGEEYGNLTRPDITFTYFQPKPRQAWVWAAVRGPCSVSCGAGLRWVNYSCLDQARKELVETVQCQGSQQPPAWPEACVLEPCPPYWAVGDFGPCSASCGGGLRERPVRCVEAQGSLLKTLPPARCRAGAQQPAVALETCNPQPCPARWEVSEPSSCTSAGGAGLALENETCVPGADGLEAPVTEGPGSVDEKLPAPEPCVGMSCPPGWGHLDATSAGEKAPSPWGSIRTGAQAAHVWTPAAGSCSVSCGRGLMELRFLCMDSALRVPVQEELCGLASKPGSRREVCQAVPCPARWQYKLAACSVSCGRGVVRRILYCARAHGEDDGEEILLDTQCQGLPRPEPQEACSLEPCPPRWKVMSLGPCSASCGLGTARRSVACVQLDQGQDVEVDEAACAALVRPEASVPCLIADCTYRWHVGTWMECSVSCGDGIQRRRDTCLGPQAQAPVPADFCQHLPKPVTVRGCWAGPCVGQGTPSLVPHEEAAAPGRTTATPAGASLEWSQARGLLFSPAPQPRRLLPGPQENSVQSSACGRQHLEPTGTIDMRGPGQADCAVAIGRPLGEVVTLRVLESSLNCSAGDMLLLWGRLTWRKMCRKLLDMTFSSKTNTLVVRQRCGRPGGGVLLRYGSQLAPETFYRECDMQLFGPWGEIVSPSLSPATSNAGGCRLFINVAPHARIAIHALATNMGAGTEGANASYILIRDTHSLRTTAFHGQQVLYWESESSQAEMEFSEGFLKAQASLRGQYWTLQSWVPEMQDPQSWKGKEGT
Assay: SPR; competition: 2 µM Lys-Pg, Glu-Pg or apo(a) with 0-5 mM EACA or TXA (small-molecule lysine analogs) injected over immobilized ADAMTS13 (or fibrinogen); same buffer and conditions as the binding experiments; both purified

binding	Substance
binds	Glu-plasminogen
binds	17-kringle form of apolipoprotein(a)
binds	Lys-plasminogen

These are yes or no findings as the source states them, for the method shown. A result given as binding can be weak or reduced; the word gives no strength.
